Data published in publication PMC4177678.
These are yes or no findings as the source states them, for the method shown. In cells and extracts the contact can be indirect. Some entries that bind do so weakly or less than the wild type.

The chains behind the UniProt entries cited, without tags or fusion partners. Where a name states a change or a piece, a line headed by the entry shows the natural chain unless it says otherwise. Residues count along the entry.
UniProt Q01371: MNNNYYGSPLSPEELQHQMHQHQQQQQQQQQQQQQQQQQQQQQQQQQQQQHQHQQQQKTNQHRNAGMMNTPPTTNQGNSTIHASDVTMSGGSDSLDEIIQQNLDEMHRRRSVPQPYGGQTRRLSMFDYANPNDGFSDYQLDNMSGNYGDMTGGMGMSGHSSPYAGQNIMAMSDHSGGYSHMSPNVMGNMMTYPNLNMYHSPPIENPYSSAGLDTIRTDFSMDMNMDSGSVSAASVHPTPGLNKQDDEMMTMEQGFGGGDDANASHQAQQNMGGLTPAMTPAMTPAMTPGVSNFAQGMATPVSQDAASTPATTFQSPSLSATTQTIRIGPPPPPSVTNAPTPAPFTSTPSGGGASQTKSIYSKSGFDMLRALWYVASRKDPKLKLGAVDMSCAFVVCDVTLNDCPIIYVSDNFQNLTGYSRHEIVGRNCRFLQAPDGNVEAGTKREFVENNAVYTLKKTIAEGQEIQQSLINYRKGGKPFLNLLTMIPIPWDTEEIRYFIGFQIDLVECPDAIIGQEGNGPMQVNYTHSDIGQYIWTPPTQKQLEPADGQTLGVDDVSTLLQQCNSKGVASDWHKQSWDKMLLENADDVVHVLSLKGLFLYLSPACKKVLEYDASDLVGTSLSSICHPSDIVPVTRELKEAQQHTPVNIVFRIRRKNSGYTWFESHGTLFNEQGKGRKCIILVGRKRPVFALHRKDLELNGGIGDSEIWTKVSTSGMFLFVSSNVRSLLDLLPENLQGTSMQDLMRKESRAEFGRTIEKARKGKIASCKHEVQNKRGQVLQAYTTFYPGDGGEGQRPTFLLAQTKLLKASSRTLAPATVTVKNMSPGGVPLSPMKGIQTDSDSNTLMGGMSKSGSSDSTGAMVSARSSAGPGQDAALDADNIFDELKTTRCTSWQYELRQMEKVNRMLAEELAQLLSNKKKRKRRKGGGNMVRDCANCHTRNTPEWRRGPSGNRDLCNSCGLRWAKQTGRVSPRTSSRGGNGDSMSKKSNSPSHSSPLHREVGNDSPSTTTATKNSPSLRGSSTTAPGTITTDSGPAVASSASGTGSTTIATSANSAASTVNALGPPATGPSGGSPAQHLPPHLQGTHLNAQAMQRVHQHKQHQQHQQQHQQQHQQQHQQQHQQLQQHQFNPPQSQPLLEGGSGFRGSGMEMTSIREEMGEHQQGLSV
GST-WC-1 aa 1-300-6xHis: residues 1-300 of Q01371
GST-WC-1 aa 100-300-6xHis: residues 100-300 of Q01371

How the values were obtained:
[1] = biological target: GST-WC-1 aa 1-300-6xHis (Neurospora) (UniProt Q01371); test: pull-down; purified GST, GST-aa1-300 or GST-aa100-300 on glutathione beads incubated with 2 milligrams of cleared Neurospora lysate (SWI1 C-tagged with V5), rotated at least 2 hours, washed three times; Western blot; only the target purified
[2] = biological target: GST-WC-1 aa 100-300-6xHis (Neurospora) (UniProt Q01371); test: as above
[3] = biological target: T1, White Collar-2 (Neurospora crassa (endogenous in Neurospora lysate)) (UniProt P78714); test: co-IP; immunoprecipitation with WC-2 antibody from lysate of a Neurospora strain with SWI1 C-terminally tagged with V5; Western blot; with and without WC-1
T1 sequence: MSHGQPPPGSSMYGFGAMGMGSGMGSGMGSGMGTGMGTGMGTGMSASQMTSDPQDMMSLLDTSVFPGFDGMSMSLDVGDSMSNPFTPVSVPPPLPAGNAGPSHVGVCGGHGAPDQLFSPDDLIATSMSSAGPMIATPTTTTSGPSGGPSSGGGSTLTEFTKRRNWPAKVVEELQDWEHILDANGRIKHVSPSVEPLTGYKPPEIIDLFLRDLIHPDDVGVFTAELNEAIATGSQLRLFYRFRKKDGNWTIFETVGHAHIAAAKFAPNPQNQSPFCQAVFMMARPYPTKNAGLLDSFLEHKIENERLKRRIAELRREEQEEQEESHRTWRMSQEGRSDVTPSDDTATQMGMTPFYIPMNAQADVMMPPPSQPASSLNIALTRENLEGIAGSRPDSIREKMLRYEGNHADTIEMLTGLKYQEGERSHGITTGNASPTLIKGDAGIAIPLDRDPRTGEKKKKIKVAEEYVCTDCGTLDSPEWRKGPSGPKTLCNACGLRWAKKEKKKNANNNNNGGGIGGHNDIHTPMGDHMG

binding [1] | binding [2] | binding [3] | Substance
no binding | no binding |  | actin (from UniProt P78711 1-375)
 |  | binds | White Collar-1 (from UniProt Q01371 1-1167)
